Measured data: PubChem BioAssay AID743454 (Peter MacCallum Cancer Centre, 2014)
Test: 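Knock-downs lowering viability or raising caspase 3/7 activity in vorinostat-treated resistant cells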 (primary screen). Cells: human HCT116-VR colon cancer cells, selected for vorinostat resistance. Knock-down reagent: siRNA pool against human genes, 40 nM siRNA pool. Timing: vorinostat for 24 h, read-out about 72 h after transfection. Challenge: vorinostat at 2.5 µM final. Measured: 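Two measures, CellTiter-Fluor viability and luminescent caspase 3/7 activity, each as fold change against same-plate mock wells, mean of duplicates, then screen-wide robust z-score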. Reading the numbers: viability robust z-score: higher = more viable cells than screen typical; caspase robust z-score: higher = more caspase 3/7 activity than screen typical. Active means: 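Hits are knock-downs in viability class RV1/RV2 or caspase class CA1/CA2, excluding ones that killed cells in the no-drug cell-count arm; hits then retested with single siRNAs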.
The whole screen tested about 18,000 reagents; shown is an unselected part. Of all reagents, 450 (2.5%) were called active. 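Single biological run; no consistent viability z cut-off exists, so the class columns, not z-scores, define the calls.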 Reagent sequences are not shown.

With knock-down of PCDHB7 (protocadherin beta 7) the results were viability hit class no change; caspase hit class no change; viability robust z-score 0.78; caspase robust z-score -0.14; inactive.
With knock-down of TREML2 (triggering receptor expressed on myeloid cells like 2), the record shows viability hit class no change; caspase hit class no change; viability robust z-score -0.44; caspase robust z-score 0.02; inactive.
Depletion of LNPK (lunapark, ER junction formation factor) gave: viability hit class no change; caspase hit class no change; viability robust z-score -0.26; caspase robust z-score -1.34; inactive.
After knock-down of WDR36 (WD repeat domain 36) the results were viability hit class no change; caspase hit class no change; viability robust z-score -1.39; caspase robust z-score -0.5; inactive.
Silencing of GOLGA3 (golgin A3) gave: viability hit class no change; caspase hit class no change; viability robust z-score -1.36; caspase robust z-score -0.24; inactive.
FBXL21P (F-box and leucine rich repeat protein 21, pseudogene) scored viability hit class no change; caspase hit class no change; viability robust z-score -0.26; caspase robust z-score -0.98; inactive.
After knock-down of CCDC51 (coiled-coil domain containing 51), the record shows viability hit class no change; caspase hit class no change; viability robust z-score -1; caspase robust z-score 1.22; inactive.
AVPR1A (arginine vasopressin receptor 1A) scored viability hit class no change; caspase hit class no change; viability robust z-score -0.2; caspase robust z-score 0.12; inactive.
Knock-down of TAF1D resulted in: viability hit class no change; caspase hit class no change; viability robust z-score 0.78; caspase robust z-score 0.42; inactive.
RHBDF1 (rhomboid 5 homolog 1) scored viability hit class no change; caspase hit class no change; viability robust z-score 0.22; caspase robust z-score 2.08; inactive.
Depletion of RFC2 (replication factor C subunit 2) resulted in: viability hit class no change; caspase hit class no change; viability robust z-score -1.15; caspase robust z-score 0.18; inactive.
For FAF2 (Fas associated factor family member 2), the values are viability hit class no change; caspase hit class no change; viability robust z-score -0.43; caspase robust z-score -0.86; inactive.

Entries above whose target name starts with F or f (2):
FBXL21P (F-box and leucine rich repeat protein 21, pseudogene): viability hit class = no change; caspase hit class = no change; viability robust z-score = -0.26; caspase robust z-score = -0.98; activity call = inactive
FAF2 (Fas associated factor family member 2): viability hit class = no change; caspase hit class = no change; viability robust z-score = -0.43; caspase robust z-score = -0.86; activity call = inactive
